# Laboratory results: PubChem BioAssay AID504467 (National Center for Advancing Translational Sciences (NCATS), 2011)
# The whole screen tested about 330,000 compounds, of which about 7,700 (2.3%) were called active. The shares of active, inactive and inconclusive entries below differ from those in the screen. Calls come from the whole dose curve; as a rule, active = well fitted inhibition curve with a large enough effect; inconclusive = small, poorly fitted or top-dose-only effect, or effect the other way; inactive = flat fitted curve, though single readings scatter. A potency beside an inconclusive call is a rough fit, not a confirmed value.
# Experiment: qHTS screen for small molecules that inhibit ELG1-dependent DNA repair in human embryonic kidney (HEK293T) cells expressing luciferase-tagged ELG1; note: nearly all actives have a fitted effect of over 55% in size
# Details: HEK293T ELG1-luciferase reporter, luminescence, 16 h, DNA damage induced by 5-fluorouridine; activity change, negative = inhibition: at 46.1 µM (top of the series)
# In short: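 Step one: seed 2,000 cells per well. Step two: pin-transfer compound or DMSO alongside 5-fluorouridine. Step three: incubate 16 hr, 37 °C, 5% CO2. Step four: add ONE-Glo, wait 30 min, read luminescence.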
# % is set by controls: 0 for no effect and ±100 for the full control effect; potency is the fitted concentration of half-maximal effect.
SMILES,"activity change, negative = inhibition",Potency
COc1ccc(NC(=O)CN(C)C(=O)c2cccc(S(=O)(=O)N3CCCc4ccccc43)c2)cc1,inactive: -20.9%,
CC[C@]12c3[nH]c4cc(CCC(=O)N(C)C)ccc4c3CCN1C(=O)[C@@H](CC(=O)NCCC1=CCCCC1)C[C@@H]2C(=O)N1CCN(C(=O)c2ccco2)CC1,,"inconclusive: 20.6 µM [activator, single point]"
O=C(NC12CC3CC(CC(C3)C1)C2)N1CCC(n2nnc3ccccc32)CC1,inactive: -13.6%,
O=[N+]([O-])c1cc(S(=O)(=O)N2CCCCC2)ccc1NCCCN1CCOCC1,,"inconclusive: 11.6 µM [inhibitor, partial curve]"
COCCn1c(C)cc(C(=O)CSc2nc(C)c(C)c(C)n2)c1C,,"inconclusive: 20.6 µM [inhibitor, single point]"
Cc1c(NC(=O)c2cccs2)cccc1C(=O)O,,"inconclusive: 20.6 µM [activator, single point]"
Cc1cccc(NC(=O)c2cc(NC(=O)C3CC=CCC3C(=O)O)ccc2N2CCOCC2)c1 (configuration not stated),inactive: -0.88%,
CC1CCC/C(=C\Nc2ccccc2C(=O)O)C1=O (configuration not stated),,"inconclusive: 13 µM [activator, partial curve]"
CCOC(=O)c1c(NC(=O)CN2CCC(C)CC2)sc(C)c1C,,"inconclusive: 14.6 µM [inhibitor, single point]"
CNC(=O)c1ccsc1NC(=O)c1sc2ccccc2c1Cl,,"inconclusive: 9.2 µM [activator, partial curve]"
C[C@H](CO)N1C[C@H](C)[C@@H](CN(C)C(=O)Nc2ccc(C(F)(F)F)cc2)Oc2c(NC(=O)CCC(F)(F)F)cccc2C1=O,,active: 1.83 µM
O=C(c1cccc(OC2CCN(Cc3cc(F)cc(F)c3)CC2)c1)N1CCCC1,inactive: -3.83%,
N/C(=N\OC(=O)Cc1ccc(-c2ccccc2)cc1)c1ccncc1,,"inconclusive: 18.3 µM [inhibitor, single point]"
Cc1cc([N+](=O)[O-])ccc1NC(=S)NC(=O)C(c1ccccc1)c1ccccc1,,"inconclusive: 29.1 µM [inhibitor, single point]"
Cc1cccc(-n2c(N)cc(=O)[nH]c2=S)c1,inactive: 0.254%,
Cc1cc(C)n(-c2ncc(-c3ccccc3)nn2)n1,,"inconclusive: 18.4 µM [activator, partial curve]"
COC(=O)[C@@]12CCCCN1[C@H](c1ccc(SC3CCCCC3)cc1)[C@@H]1C(=O)N(C)C(=O)[C@@H]12,inactive: 2.14%,
N#CCSCC(=O)Nc1ccccc1,,"inconclusive: 29.1 µM [activator, single point]"
CCc1nc(Nc2ccc(O)cc2)c2oc3ccccc3c2n1,,active: 16.4 µM
O=C(O)CCCC(=O)N1CCN(C(c2ccccc2)c2ccccc2)CC1,inactive: 3.25%,
Cc1coc2cc3oc(=O)c(CCC(=O)NCc4ccccn4)c(C)c3cc12,,"inconclusive: 23.1 µM [inhibitor, single point]"
Cc1cccc(C(=O)NNC(=O)c2ccccc2Br)c1,,"inconclusive: 25.9 µM [activator, single point]"
O=C(NCCN1CCOCC1)c1cc(-c2ccccc2)on1,,"inconclusive: 11.6 µM [activator, single point]"
Cc1ccc(NC(=O)CSC2=C(C#N)C(c3ccc4c(c3)OCO4)CC(=O)N2)cc1C (configuration not stated),,"inconclusive: 32.6 µM [inhibitor, single point]"

# Some of the entries so far, tab-delimited:
SMILES	activity change, negative = inhibition	Potency
O=C(NC12CC3CC(CC(C3)C1)C2)N1CCC(n2nnc3ccccc32)CC1	inactive: -13.6%	
O=[N+]([O-])c1cc(S(=O)(=O)N2CCCCC2)ccc1NCCCN1CCOCC1		inconclusive: 11.6 µM [inhibitor, partial curve]
COCCn1c(C)cc(C(=O)CSc2nc(C)c(C)c(C)n2)c1C		inconclusive: 20.6 µM [inhibitor, single point]
Cc1c(NC(=O)c2cccs2)cccc1C(=O)O		inconclusive: 20.6 µM [activator, single point]

# Following part

SMILES,"activity change, negative = inhibition",Potency
CCOc1ccccc1N1CC(C(=O)N2CCc3ccccc3C2)CC1=O (configuration not stated),inactive: -6.01%,
O=C(O)CNc1nc(-c2ccccc2)c2cc([N+](=O)[O-])ccc2n1,inactive: 21.3%,
C=CCOC(=O)c1ccc(N2CCN(c3ccccc3)CC2)nc1,,"inconclusive: 29.1 µM [activator, single point]"
Cc1cccc(-c2nc(Nc3ccc(N4CCOCC4)cc3)c3ccccc3n2)c1,,active: 23.1 µM
O=C1CCCN1CCCNc1ncnc2c1cnn2-c1ccc(Cl)cc1,,"inconclusive: 3.26 µM [activator, single point]"
N#C/C(=C\C=C\c1ccccc1[N+](=O)[O-])C(=O)NC1CCCCC1,,"inconclusive: 29.1 µM [inhibitor, single point]"
CCOP(=O)(OCC)c1cccc(P(=O)(c2ccccc2)c2ccccc2)c1O,inactive: -1.22%,
CN(C)C(=O)CCc1ccc2c3c([nH]c2c1)[C@]1(CCC2CCCC2)[C@@H](C(=O)N2CCOCC2)C[C@H](CC(=O)NCCCn2ccnc2)C(=O)N1CC3,,"inconclusive: 29.1 µM [activator, partial curve, poor fit]"
O=C(NCc1ccc(Cl)cc1)C(=O)NCC1OCCCN1S(=O)(=O)c1cccs1 (configuration not stated),,"inconclusive: 23.1 µM [inhibitor, single point]"
CCC/C=C(\CCC)C(NS(=O)(=O)c1cccc2cccnc12)c1ccc(C(=O)OC)cc1 (configuration not stated),inactive: 2.18%,
Cc1ccc(S(=O)(=O)NNC(=S)NC(=O)c2ccc([N+](=O)[O-])cc2)cc1,inactive: 10.8%,
CCn1c(SCC(=O)NC(=O)Nc2ccc3c(c2)OCCO3)nnc1-c1cccs1,,"inconclusive: 20.6 µM [activator, partial curve, poor fit]"
O=C1C(=O)N(C2CCS(=O)(=O)C2)C(c2cccc(O)c2)/C1=C(/O)c1ccc(Cl)cc1 (configuration not stated),inactive: -4.6%,
COCCCn1c(SCC(=O)N2CCOCC2)nc2cc(Cl)ccc2c1=O,,"inconclusive: 16.4 µM [inhibitor, partial curve]"
Clc1ccc(CNCCCSc2ncccn2)cc1,inactive: -5.93%,
Cc1ccc(N2C(=O)c3ccccc3C2Nc2cccnc2)nc1 (configuration not stated),,"inconclusive: 14.6 µM [activator, partial curve, poor fit]"
CC1(C)CC(=O)C=C(c2ccc(I)cc2)C1,,"inconclusive: 23.1 µM [activator, single point]"
N/C(=N\OC(=O)c1ccc2ccccc2c1)c1ccccc1Cl,,"inconclusive: 18.3 µM [activator, partial curve]"
Cc1ccccc1NC(=O)CSc1nc(Nc2ccccc2)nc(N2CCOCC2)n1,,"inconclusive: 23.1 µM [inhibitor, partial curve, poor fit]"
C=CCn1c(COc2cccc(C)c2C)nnc1SCC(=O)N1CCN(c2ccccc2)CC1,,active: 20.6 µM
Cc1ccc(-c2ccc(C(=O)O)o2)cc1Cl,,"inconclusive: 20.6 µM [activator, single point]"
CC(=O)Nc1ccc2[nH]c3ccccc3c2c1,,"inconclusive: 20.6 µM [activator, single point]"
CC(C)Cn1c(CN(C)Cc2ccccc2)nc2c1c(=O)n(C)c(=O)n2C,,"inconclusive: 20.6 µM [inhibitor, single point]"
O=C(CSc1nc(-c2ccccc2Cl)ns1)c1ccc(Cl)cc1,inactive: 12.1%,

SMILES,"activity change, negative = inhibition",Potency
C[C@H]1CN=C(Nc2ccccc2)N1CCCC1CCCC1,,"inconclusive: 0.259 µM [inhibitor, single point]"
COc1ccc(Cl)cc1S(=O)(=O)N1CCN=C1C,inactive: 14.1%,
C=CCOc1ccc(CNc2nccs2)cc1OC,,"inconclusive: 29.1 µM [activator, single point]"
O=C(/C=C/c1ccccc1)Nc1cccc(C(=O)O)c1,,"inconclusive: 9.2 µM [inhibitor, partial curve, poor fit]"
COC(=O)c1ccccc1NC(=O)c1nc(S(=O)(=O)Cc2ccccc2)ncc1Cl,inactive: -13.1%,
CC(Cc1cccs1)NC(=O)Nc1ccc(F)cc1 (configuration not stated),,"inconclusive: 20.6 µM [activator, partial curve]"
COc1cc(OC)cc(-c2nc3ccccc3c(=O)n2OC(=O)c2ccccc2C)c1,,"inconclusive: 23.1 µM [inhibitor, partial curve]"
O=C(O)c1ccc(/C=N/NC(=O)c2ccc(F)cc2)cc1,inactive: 2.04%,
CC(=O)c1c(C)[nH]c(C(=O)OCC(=O)Nc2cc(C)on2)c1C,inactive: -28.1%,
CC(C)C[C@H]1CN=C(Nc2ccccc2)N1CC1CCC(C(C)(C)C)CC1 (some centres not stated),,"inconclusive: 10 µM [inhibitor, partial curve]"
O=C(NC1CC1)C1CCN(C(=O)c2ccc(Cl)cc2Cl)CC1,inactive: -12.2%,
Cc1cccc(-c2nnc(SCCC(=O)N3CCOCC3)o2)c1,,"inconclusive: 23.1 µM [activator, single point]"
CC(=O)c1ccc(S(=O)(=O)N2CCN(C(C)C(=O)N(C)Cc3ccccc3)CC2)cc1 (configuration not stated),inactive: -11.9%,
COc1ccc(OCC(=O)Nc2ccccc2O)cc1,,"inconclusive: 10.3 µM [activator, partial curve]"
O=S(=O)(Nc1nc2ccccc2nc1NCc1ccco1)c1ccc(F)cc1,,active: 14.6 µM
CCOC(=O)N1CCN(CCC(=O)Nc2cccc(Cl)c2C)CC1,inactive: 8.63%,
COC(=O)C(CCSC)NC(=O)c1cn(-c2ccc(OC)cc2)c(=O)c2ccccc12 (configuration not stated),inactive: -1.69%,
Cc1nc2c3ccccc3nc(NNC(=O)CCC(=O)N3CCCC(C)C3)n2n1 (configuration not stated),inactive: 9.8%,
O=C(/C=C/Sc1ncn[nH]1)c1ccc(Cl)cc1,,"inconclusive: 29.1 µM [inhibitor, single point]"
COc1cccc(-c2ncc3ccccc3c2COC(=O)c2ccc(F)cc2)c1,,"inconclusive: 18.3 µM [inhibitor, partial curve]"
O=C(NCC1CC1)c1onc(CSc2ccncc2)c1C(=O)NCC1CC1,inactive: 0.932%,
O=C(Nc1ccc2oc(-c3ccccc3)nc2c1)C1CCCO1 (configuration not stated),,"inconclusive: 7.31 µM [activator, partial curve]"
O=C(Nc1ccncc1)c1cc(-c2cccc(Br)c2)nc2ccccc12,,"inconclusive: 25.9 µM [inhibitor, single point]"
CC1(C2CC2)NC(=O)N(CC(=O)N2CCN(c3ccccc3Cl)CC2)C1=O (configuration not stated),,"inconclusive: 16.4 µM [activator, partial curve, poor fit]"
